Source: PubChem BioAssay AID1259254 (NCATS, 2017)

Purpose: 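Gene knock-downs that lead to re-replication, shown by excess G2 DNA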 (primary screen)
Cells: human HCT116 colorectal cancer cells
Reagents: single siRNA against human genes
Duration: 3 days
Detection: 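Nuclei stained with Hoechst and imaged; cell-cycle phase assigned by DNA content; G2 share scaled per plate, non-targeting siRNA 0%, GMNN siRNA 100%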
Reading the numbers: G2 robust z-score and G2 cells, % of GMNN control: higher = more G2 cells, more excess DNA replication
Rule for the call: 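Active siRNAs have a G2 robust z of 5 or more median absolute deviations over the median, which in these data means about 38% or higher of GMNN control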
In all, the deposit lists about 59,000 reagents; below is a part drawn at random. About 1,550 of all reagents (2.6%) count as active. 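G2 share is only a proxy for re-replication; each gene was hit by three separate siRNAs, and active genes were retested.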 Unmarked entries are inactive. Reagents against one gene are numbered here. Further read-outs or replicates are left out here. Reagent sequences are not shown. The record does not give: the amount of reagent.

no.	target	reagent no.	G2 robust z-score	G2 cells, % of GMNN control
1	ZER1 (zyg-11 related cell cycle regulator)	1	2.68	21.9
2	ZER1 (zyg-11 related cell cycle regulator)	2	1.11	10.8
3	ZER1 (zyg-11 related cell cycle regulator)	3	-0.268	1.09
4	CDCP2 (CUB domain containing protein 2)	1	1.66	14.6
5	CDCP2 (CUB domain containing protein 2)	2	3.46	27.3
6	CDCP2 (CUB domain containing protein 2)	3	0.811	8.67
7	VSIR (V-set immunoregulatory receptor)	1	-1.01	-4.15
8	VSIR (V-set immunoregulatory receptor)	2	-0.486	-0.449
9	VSIR (V-set immunoregulatory receptor)	3	2.6	21.2
10	ARIH2OS (ARIH2 opposite strand lncRNA)	1	-0.488	-0.468
11	ARIH2OS (ARIH2 opposite strand lncRNA)	2	-0.217	1.44
12	ARIH2OS (ARIH2 opposite strand lncRNA)	3	0.0626	3.41
13	NDUFS4 (NADH:ubiquinone oxidoreductase subunit S4)	1	0.0449	3.28
14	NDUFS4 (NADH:ubiquinone oxidoreductase subunit S4)	2	1.79	15.6
15	NDUFS4 (NADH:ubiquinone oxidoreductase subunit S4)	3	0.702	7.91
16	LONP2 (lon peptidase 2, peroxisomal)	1	-0.0609	2.54
17	LONP2 (lon peptidase 2, peroxisomal)	2	1.26	11.8
18	LONP2 (lon peptidase 2, peroxisomal)	3	-0.554	-0.93
19	DEAF1 (DEAF1 transcription factor)	1	0.511	6.56
20	DEAF1 (DEAF1 transcription factor)	2	1.2	11.4
21	DEAF1 (DEAF1 transcription factor)	3	-0.316	0.745
22	CCNO (cyclin O)	1	-1.68	-8.84
23	CCNO (cyclin O)	2	0.433	6.01
24	CCNO (cyclin O)	3	-1.13	-5
25	RNF130 (ring finger protein 130)	1	1.77	15.5
26	RNF130 (ring finger protein 130)	2	3.2	25.5
27	RNF130 (ring finger protein 130)	3	0.338	5.35
28	ACP1 (acid phosphatase 1)	1	0.316	5.19
29	ACP1 (acid phosphatase 1)	2	-0.155	1.87
30	ACP1 (acid phosphatase 1)	3	-0.473	-0.361
31	CRTC3 (CREB regulated transcription coactivator 3)	1	0.0632	3.41
32	CRTC3 (CREB regulated transcription coactivator 3)	2	-0.861	-3.09
33	CRTC3 (CREB regulated transcription coactivator 3)	3	0.376	5.62
34	HOXD3 (homeobox D3)	1	-0.557	-0.955
35	HOXD3 (homeobox D3)	2	-0.767	-2.43
36	HOXD3 (homeobox D3)	3	-0.942	-3.66
37	CD44 (CD44 molecule (IN blood group))	1	-1.35	-6.51
38	CD44 (CD44 molecule (IN blood group))	2	-0.527	-0.737
39	CD44 (CD44 molecule (IN blood group))	3	-0.183	1.68
40	PCSK5 (proprotein convertase subtilisin/kexin type 5)	1	-0.714	-2.05
41	PCSK5 (proprotein convertase subtilisin/kexin type 5)	2	-0.0181	2.84
42	PCSK5 (proprotein convertase subtilisin/kexin type 5)	3	-0.382	0.283
43	APEH (acylaminoacyl-peptide hydrolase)	1	0.726	8.07
44	APEH (acylaminoacyl-peptide hydrolase)	2	-1.01	-4.1
45	APEH (acylaminoacyl-peptide hydrolase)	3	-0.8	-2.66

Targets above whose gene name starts with A or a (9):
target	reagent no.	G2 robust z-score	G2 cells, % of GMNN control
ARIH2OS (ARIH2 opposite strand lncRNA)	1	-0.488	-0.468
ARIH2OS (ARIH2 opposite strand lncRNA)	2	-0.217	1.44
ARIH2OS (ARIH2 opposite strand lncRNA)	3	0.0626	3.41
ACP1 (acid phosphatase 1)	1	0.316	5.19
ACP1 (acid phosphatase 1)	2	-0.155	1.87
ACP1 (acid phosphatase 1)	3	-0.473	-0.361
APEH (acylaminoacyl-peptide hydrolase)	1	0.726	8.07
APEH (acylaminoacyl-peptide hydrolase)	2	-1.01	-4.1
APEH (acylaminoacyl-peptide hydrolase)	3	-0.8	-2.66

The listing continues:
no.	target	reagent no.	G2 robust z-score	G2 cells, % of GMNN control
46	ARMCX1 (armadillo repeat containing X-linked 1)	1	1.58	14.1
47	ARMCX1 (armadillo repeat containing X-linked 1)	2	1.07	10.5
48	ARMCX1 (armadillo repeat containing X-linked 1)	3	1.24	11.7
49	VPS11 (VPS11 core subunit of CORVET and HOPS complexes)	1	2.8	22.7
50	VPS11 (VPS11 core subunit of CORVET and HOPS complexes)	2	0.211	4.46
51	VPS11 (VPS11 core subunit of CORVET and HOPS complexes)	3	0.863	9.04
52	SLC39A2	1	0.593	7.14
53	SLC39A2	2	0.394	5.74
54	SLC39A2	3	5.87 (active)	44.3
55	SLC2A1	1	-0.574	-1.07
56	SLC2A1	2	-0.0764	2.43
57	SLC2A1	3	0.23	4.58
58	ESRRG (estrogen related receptor gamma)	1	-0.505	-0.587
59	ESRRG (estrogen related receptor gamma)	2	1.09	10.7
60	ESRRG (estrogen related receptor gamma)	3	0.269	4.86
61	HAUS3 (HAUS augmin like complex subunit 3)	1	-0.555	-0.937
62	HAUS3 (HAUS augmin like complex subunit 3)	2	2.59	21.2
63	HAUS3 (HAUS augmin like complex subunit 3)	3	-0.619	-1.39
64	LRRC46 (leucine rich repeat containing 46)	1	-0.969	-3.85
65	LRRC46 (leucine rich repeat containing 46)	2	-0.285	0.959
66	LRRC46 (leucine rich repeat containing 46)	3	-0.648	-1.59
67	PFDN6 (prefoldin subunit 6)	1	0.41	5.85
68	PFDN6 (prefoldin subunit 6)	2	0.332	5.3
69	PFDN6 (prefoldin subunit 6)	3	0.22	4.51
